Data as given in article PMC4379058, “The Biochemical Properties of the Arabidopsis Ecto-Nucleoside Triphosphate Diphosphohydrolase AtAPY1 Contradict a Direct Role in Purinergic Signaling” (PLoS ONE, 2015).
Results are given in words; binding and its absence hold for the method and conditions named. For some assays here: Tags and fused reporters may be left off the sequences shown.

Legend:
[1] = biological target: Legionella pneumophila NTPDase1 (LpNTPDase1), His6-tagged (Legionella pneumophila) (UniProt Q5ZUA2); assay: far-Western, overlay or dot blot; both purified
[2] = biological target: T1, AtAPY1-δTM (soluble form of AtAPY1 without the transmembrane domain, C-terminal His6-tag) (Arabidopsis thaliana) (UniProt Q9SQG2); assay: far-Western, overlay or dot blot; CaM overlay as with calcium, but Ca2+ replaced with 5 mM EGTA in all pertinent solutions; exposure 60 s against 1 s; both purified
T1 sequence: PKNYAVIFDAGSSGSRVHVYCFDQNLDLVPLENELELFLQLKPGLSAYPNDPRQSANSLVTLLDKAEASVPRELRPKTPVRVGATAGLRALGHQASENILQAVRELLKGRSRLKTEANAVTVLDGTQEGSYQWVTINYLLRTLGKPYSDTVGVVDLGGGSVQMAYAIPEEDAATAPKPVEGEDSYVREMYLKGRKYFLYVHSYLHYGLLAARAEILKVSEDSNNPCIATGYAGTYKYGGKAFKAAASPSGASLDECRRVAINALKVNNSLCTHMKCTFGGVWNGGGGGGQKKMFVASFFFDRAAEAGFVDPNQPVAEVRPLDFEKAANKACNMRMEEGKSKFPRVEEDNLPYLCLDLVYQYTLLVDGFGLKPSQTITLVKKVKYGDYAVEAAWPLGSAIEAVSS

Substance: calmodulin 2 from A. thaliana (AtCaM2), N-terminally His6-tagged, biotinylated (from UniProt P0DH97 1-149)
- binding [1]: no binding (tested: 200 ng/mL AtCaM2)
- binding [2]: no binding (condition: Ca2+ replaced with 5 mM EGTA)
